Consider two molecules from patent US20240368288A1.

No constants are given. Whether binding was seen depends on the method and setting. Some binding calls cover weakened binding; strength is not graded here.

This test deals with T1, human FLT-3 as used for epitope mapping by HDX-MS (human) (UniProt P36888).
T1 sequence (looked up): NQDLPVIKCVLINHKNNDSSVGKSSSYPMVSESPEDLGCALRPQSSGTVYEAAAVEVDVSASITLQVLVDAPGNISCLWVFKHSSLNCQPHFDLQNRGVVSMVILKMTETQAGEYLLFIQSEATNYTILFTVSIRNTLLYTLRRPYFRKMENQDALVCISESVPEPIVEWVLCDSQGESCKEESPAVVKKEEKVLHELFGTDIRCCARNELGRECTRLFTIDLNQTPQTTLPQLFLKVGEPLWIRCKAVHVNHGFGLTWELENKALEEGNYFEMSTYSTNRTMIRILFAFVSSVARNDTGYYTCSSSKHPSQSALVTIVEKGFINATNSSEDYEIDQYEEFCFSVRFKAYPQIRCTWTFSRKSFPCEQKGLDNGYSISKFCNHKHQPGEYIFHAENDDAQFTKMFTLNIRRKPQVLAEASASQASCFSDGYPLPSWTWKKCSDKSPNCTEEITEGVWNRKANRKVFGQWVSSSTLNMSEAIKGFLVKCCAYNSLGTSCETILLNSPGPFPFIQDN
The test can be described thus: HDX-MS of FLT3 alone and in complex with the antibody.

B1: 1-18BAC1 humanized full-length anti-FLT3 antibody (antibody, V domains shown)
VH: QVTLKESGPALVKPTQTLTLTCTFSGFSLSRSTMGVGWIRQPPGKALEWLAHIKWNDSKYYNPALKSRLTISKDTSKNQVVLTMTNMDPVDTATYYCARIVYYSTYVGYFDVWGQGTLVTVSS
VL: DIQMTQSPSSLSASVGDRVTITCRASQEISGYLSWYQQKPEKAPKSLIYAASTLHSGVPSRFSGSGSGTDFTLTISSLQPEDFATYYCLQYASYPLTFGQGTKLEIK
Take B1: the binding result is given as “binds”.

B2: 1B11sL3-1 humanized full-length anti-FLT3 antibody (antibody, V domains shown)
VH: QVQLVQSGAEVKKPGSSVKVSCKASGYTFTSYWMHWVRQAPGQGLEWMGEIDPSDSYTNYNQKFKGRVTITADESTSTAYMELSSLRSEDTAVYYCARSAYYSKRDDYWGQGTLVTVSS
VL: EIVLTQSPATLSLSPGERATLSCRASESVDNYGISFMNWYQQKPGQAPRLLIYAASEQGSGIPARFSGSGSGTDFTLTISSLEPEDFAVYYCWQSKEVPWTFGQGTKLEIK
For the molecule B2, the binding result is “binds”.
